Where two headings read alike, the source gives them in different places.
Test system: contractile response to histamine, terminal ileum
Assay: Antihistaminic action: inhibition of contractile response to histamine (10^-6 M) in isolated terminal ileum
Type: cell-based, guinea-pig
Conditions: for inhibition at 1 µM / inhibition at 0.1 µM: Cavia porcellus; for inhibition at 1 µM: antagonist 10^-6 M
Description: The terminal ileum was removed from a starved guinea-pig and set up in an organ bath containing Tyrode solution maintained at 26° C. Contractile tension was recorded isometrically under a tension of 1.5 g with a strain-gauge transducer. After obtaining control response to histamine (10^-6 M), antagonists were added to the bath and allowed to remain in contact with the tissue for 3 minutes. Contractile response to histamine in the presence of the antagonists was recorded and the inhibitory rate was calculated according to the following equation: [formula] The tissue was then washed at 10 min intervals with fresh Tyrode solution. Contractile response to histamine was tested after each wash in order to study the duration of action of the antagonists.

## C(=C\c1ccccc1)/CN1CCN(C(c2ccccc2)c2ccccc2)CC1 [(2), Cinnarizine, reference compound]
0.05 h, 3 min contact, before washing, read-out: Inhibitory rate before washing
  inhibition at 1 µM: 74%
0.05 h, antagonist 10^-7 M, 3 min contact, before washing, read-out: Inhibitory rate before washing
  inhibition at 0.1 µM: 2%
After 1st washing, read-out: Inhibitory rate after 1st washing
  inhibition at 1 µM: 81%
After 2nd washing, read-out: Inhibitory rate after 2nd washing
  inhibition at 1 µM: 71%
After 3rd washing, read-out: Inhibitory rate after 3rd washing
  inhibition at 1 µM: 65%
Antagonist 10^-7 M, after 1st washing, read-out: Inhibitory rate after 1st washing
  inhibition at 0.1 µM: 52%
Antagonist 10^-7 M, after 2nd washing, read-out: Inhibitory rate after 2nd washing
  inhibition at 0.1 µM: 37%
Antagonist 10^-7 M, after 3rd washing, read-out: Inhibitory rate after 3rd washing
  inhibition at 0.1 µM: 26%
Antagonist 10^-7 M, after 4th washing
  Inhibitory rate after 4th washing: 19%

— US4599414A, “Theophylline derivatives” (Eisai Co., Ltd., priority 1979, dated 1986)
